Reference: PubChem BioAssay AID2061323 (National Center for Advancing Translational Sciences (NCATS), 2025)
This list was built around the results that the source calls inconclusive (neither active nor inactive); the mix of calls is not that of the screen. Potencies beside an inconclusive call are fits to weak or partial responses and may not hold up. Activity calls are given as the source filed them. Calls come from the whole dose curve; as a rule, active = well fitted inhibition curve with a large enough effect; inconclusive = small, poorly fitted or top-dose-only effect; inactive = flat fitted curve, though single readings scatter. Where a SMILES comes first, the peptide text is derived from it. [ ]: non-standard residue; d: D form. The star is where a group is joined. Dolaproine = CO[C@@H]([C@@H]1CCCN1)[C@@H](C)C(=O)O; Dil = CC[C@H](C)[C@H](NC)[C@@H](CC(=O)O)OC; NMe2Val = CC(C)[C@@H](C(=O)*)N(C)C; X1 = C[C@@H](N*)[C@@H](O)c1ccccc1; NMeV = CN[C@H](C(=O)O)C(C)C

Assay: Identification of antibody-drug conjugate (ADC) payloads which are substrates of ATP-binding cassette drug efflux transporters: ABCG2-HEK293-R5 cell line
Conditions: ABCG2-HEK293-R5 viability, CellTiter-Glo ATP luminescence, 48 h
Excerpt: Antibody-drug conjugates (ADCs) feature an antibody recognizing a specific protein joined to a potent toxic payload. Numerous antibody-drug conjugates have received FDA approval; however, clinical resistance arises. Resistance mechanisms include decreased expression or mutation of the antibody target, impaired payload release, or increased expression of ATP-binding cassette (ABC) efflux transporters associated with multidrug resistance. We therefore sought to characterize the interaction of ABC multidrug transporters with ADC payloads. We performed a high-throughput screen with 27 common ADC payloads using cells lines expressing ABC transporters P-glycoprotein (P-gp, encoded by ABCB1) or ABCG2 (encoded by ABCG2). Confirmatory assays were also performed using cells transfected to express P-gp, ABCG2, or MRP1 (encoded by ABCC1). Several commonly used ADC payloads were substrates of P-gp, including calicheamicin gamma1, monomethyl auristatin E, DM1, and DM4. All the pyrrolobenzodiazepines tested - SJG136, SGD-1882, SG2057, and SG3199 - were substrates of P-gp, ABCG2, and MRP1. […] These findings highlight the risk of transporter-mediated resistance with certain ADC payloads and underscore the importance of selecting payloads that evade ABC transporter recognition in future ADC development.
HEK-293 cells were transfected with empty vector (pcDNA) or vector containing the human ABCB1 (MDR-19), ABCG2 (R-5), or ABCC1 gene (MRP1) and were maintained in EMEM with 2 mg/mL G418 added to maintain transporter expression. The HeLa derivative KB-3-1 and the P-gp overexpressing KB-8-5-11 subline were maintained in DMEM; KB-8-5-11 additionally received 100 ng/mL colchicine. H460 parental cells were obtained from the Division of Cancer Treatment and Diagnosis Tumor Repository, National Cancer Institute at Frederick, MD and were cultured in RPMI. The ABCG2 expressing subline H460 MX20 was generated by selecting H460 cells in 20 nM mitoxantrone. Media in all cases was supplemented with 10% FBS and 1% penicillin-streptomycin. We explored 27 common ADC payloads, in two orthogonal, paired cell line sets-a drug selected and transfected set for each transporter--to identify substrates of the ABC transporters P-gp and ABCG2. Compounds were sourced from Levena Biopharma (San Diego, CA), Selleck Chem (Houston, TX), ChemieTek (Indianapolis, IN), or Microsource Discovery Systems (Gaylordsville, CT). Screening was performed as previously described. Briefly, cells were plated at a density of 500 cells/well in 1536 well plates with compounds added using a 1536-head pin tool (Kalypsys, San Diego CA). Cells were incubated with cytotoxic drugs and processed with CellTiter Glo reagent (Promega, Madison, WI) to determine viability after 48 hours. P-gp substrates were identified by comparing compound activity between paired sets of low-expressing (sensitive) and over-expressing (resistant) cell lines.

Row | SMILES | Potency
1 | CC[C@H](C)[C@@H]([C@@H](CC(=O)N1CCC[C@H]1[C@H](OC)[C@@H](C)C(=O)N[C@H](C)[C@@H](O)c1ccccc1)OC)N(C)C(=O)[C@@H](NC(=O)[C@H](C(C)C)N(C)C)C(C)C | active: 8.4 nM
2 | CC[C@H](C)[C@@H]([C@@H](CC(=O)N1CCC[C@H]1[C@H](OC)[C@@H](C)C(=O)N[C@@H](Cc1ccccc1)C(=O)O)OC)N(C)C(=O)[C@@H](NC(=O)[C@H](C(C)C)N(C)C)C(C)C (NMe2Val-V[Dil][Dolaproine]F-OH) | inconclusive: 300 nM [inhibitor, full curve]
3 | CC[C@H](C)[C@@H]1NC(=O)CNC(=O)[C@H]2Cc3c([nH]c4cc(O)ccc34)S(=O)C[C@H](NC(=O)CNC1=O)C(=O)N[C@@H](CC(N)=O)C(=O)N1C[C@H](O)C[C@H]1C(=O)N[C@@H]([C@@H](C)[C@@H](O)CO)C(=O)N2 (some centres not stated) | inconclusive: 1190 nM [inhibitor, full curve]
4 | COc1cc2cc(c1Cl)N(C)C(=O)C[C@H](OC(=O)C(C)C)[C@]1(C)O[C@H]1[C@H](C)[C@@H]1C[C@@](O)(NC(=O)O1)[C@H](OC)C=CC=C(C)C2 | inconclusive: 1.5 nM [inhibitor, full curve]
5 | COc1cc2cc(C(=O)N3C[C@@H](CCl)c4c3cc(O)c3ccccc43)[nH]c2c(OC)c1OC | active: 21.2 nM
6 | CC[C@H](C)[C@H](NC(=O)[C@H]1CCCCN1C)C(=O)N(C)[C@H](C[C@@H](OC(C)=O)c1nc(C(=O)O)cs1)C(C)C | inconclusive: 2670 nM [inhibitor, full curve]
7 | CC[C@@]1(O)C(=O)OCc2c1cc1n(c2=O)Cc2cc3ccccc3nc2-1 | active: 13.4 nM
8 | CC[C@H](C)[C@@H]([C@@H](CC(=O)N1CCC[C@H]1[C@H](OC)[C@@H](C)C(=O)N[C@H](C)[C@@H](O)c1ccccc1)OC)N(C)C(=O)[C@@H](NC(=O)[C@@H](NC)C(C)C)C(C)C (H-[NMeV]V[Dil][Dolaproine]-X1) | inconclusive: 18.9 nM [inhibitor, full curve]
9 | COc1cccc2c1C(=O)c1c(O)c3c(c(O)c1C2=O)C[C@@](O)(C(=O)CO)CC3OC1CC(N2CCOC(OC)C2)C(O)C(C)O1 (some centres not stated) | inconclusive: 3 nM [inhibitor, full curve]
10 | COc1cc2cc(c1Cl)N(C)C(=O)C[C@H](OC(=O)[C@H](C)N(C)C(=O)CCS)[C@]1(C)OC1[C@H](C)C1C[C@@](O)(NC(=O)O1)[C@H](OC)/C=C/C=C(\C)C2 (some centres not stated) | inconclusive: 18.9 nM [inhibitor, full curve]
11 | COc1cc2cc(c1Cl)N(C)C(=O)C[C@H](OC(=O)[C@H](C)N(C)C(=O)CCC(C)(C)S)[C@]1(C)OC1[C@H](C)C1C[C@@](O)(NC(=O)O1)[C@H](OC)/C=C/C=C(\C)C2 (some centres not stated) | active: 2.4 nM
12 | CC[C@H](C)[C@H](NC(=O)[C@H]1CCCCN1C)C(=O)N(C)[C@H](C[C@@H](OC(C)=O)c1nc(C(=O)N[C@@H](Cc2ccccc2)C[C@H](C)C(=O)O)cs1)C(C)C | inconclusive: 10.6 nM [inhibitor, full curve]
